From the supplement of paper PMC10849652
The list shows a part of the results.

By UniProt entry, the sequences of proteins in these tests, tags left out. Where a name states a change or a piece, a line headed by the entry shows the natural chain unless it says otherwise.
UniProt Q9C0C2: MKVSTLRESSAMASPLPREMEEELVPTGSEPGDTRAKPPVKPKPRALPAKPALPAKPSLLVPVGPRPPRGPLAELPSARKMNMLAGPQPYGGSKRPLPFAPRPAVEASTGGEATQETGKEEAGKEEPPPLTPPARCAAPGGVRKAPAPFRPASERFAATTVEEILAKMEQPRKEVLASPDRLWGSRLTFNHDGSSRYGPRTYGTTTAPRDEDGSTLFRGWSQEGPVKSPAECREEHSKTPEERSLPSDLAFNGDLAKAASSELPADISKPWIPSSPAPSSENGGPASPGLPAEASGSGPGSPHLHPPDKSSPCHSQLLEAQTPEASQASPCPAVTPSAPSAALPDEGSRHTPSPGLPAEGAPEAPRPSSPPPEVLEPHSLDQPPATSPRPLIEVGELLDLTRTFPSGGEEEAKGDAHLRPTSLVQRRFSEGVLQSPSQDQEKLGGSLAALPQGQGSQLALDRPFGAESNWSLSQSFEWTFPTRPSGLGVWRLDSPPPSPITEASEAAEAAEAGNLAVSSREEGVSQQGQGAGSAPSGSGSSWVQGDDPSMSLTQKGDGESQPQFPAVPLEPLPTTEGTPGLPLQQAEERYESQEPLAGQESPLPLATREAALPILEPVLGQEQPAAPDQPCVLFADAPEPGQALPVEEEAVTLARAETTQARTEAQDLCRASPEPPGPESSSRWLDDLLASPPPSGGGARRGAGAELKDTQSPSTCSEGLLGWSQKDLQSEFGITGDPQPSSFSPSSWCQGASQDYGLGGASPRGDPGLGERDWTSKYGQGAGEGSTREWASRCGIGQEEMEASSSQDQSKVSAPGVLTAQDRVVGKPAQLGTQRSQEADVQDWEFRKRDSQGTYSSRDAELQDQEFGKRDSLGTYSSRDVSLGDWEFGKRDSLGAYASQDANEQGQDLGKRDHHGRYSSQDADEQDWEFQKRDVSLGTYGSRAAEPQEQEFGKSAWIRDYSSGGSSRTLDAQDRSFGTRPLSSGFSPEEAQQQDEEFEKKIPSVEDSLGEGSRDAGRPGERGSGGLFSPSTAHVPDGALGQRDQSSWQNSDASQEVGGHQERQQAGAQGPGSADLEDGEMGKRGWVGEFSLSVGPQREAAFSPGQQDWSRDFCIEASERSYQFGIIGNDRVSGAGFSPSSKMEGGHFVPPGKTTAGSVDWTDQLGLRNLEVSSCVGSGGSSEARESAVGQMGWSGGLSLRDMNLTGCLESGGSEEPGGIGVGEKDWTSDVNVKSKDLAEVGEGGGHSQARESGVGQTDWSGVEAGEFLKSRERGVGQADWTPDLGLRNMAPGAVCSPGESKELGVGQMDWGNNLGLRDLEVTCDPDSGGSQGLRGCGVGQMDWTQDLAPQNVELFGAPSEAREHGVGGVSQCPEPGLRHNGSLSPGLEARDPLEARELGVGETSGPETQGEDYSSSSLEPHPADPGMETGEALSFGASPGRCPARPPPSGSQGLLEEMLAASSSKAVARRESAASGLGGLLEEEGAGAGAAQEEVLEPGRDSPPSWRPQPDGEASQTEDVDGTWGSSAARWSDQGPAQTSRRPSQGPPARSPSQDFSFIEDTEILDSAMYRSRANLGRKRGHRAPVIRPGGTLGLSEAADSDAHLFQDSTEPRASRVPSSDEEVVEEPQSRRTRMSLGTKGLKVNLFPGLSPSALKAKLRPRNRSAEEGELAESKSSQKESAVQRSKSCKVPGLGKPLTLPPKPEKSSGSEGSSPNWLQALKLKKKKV
UniProt Q9UKE5: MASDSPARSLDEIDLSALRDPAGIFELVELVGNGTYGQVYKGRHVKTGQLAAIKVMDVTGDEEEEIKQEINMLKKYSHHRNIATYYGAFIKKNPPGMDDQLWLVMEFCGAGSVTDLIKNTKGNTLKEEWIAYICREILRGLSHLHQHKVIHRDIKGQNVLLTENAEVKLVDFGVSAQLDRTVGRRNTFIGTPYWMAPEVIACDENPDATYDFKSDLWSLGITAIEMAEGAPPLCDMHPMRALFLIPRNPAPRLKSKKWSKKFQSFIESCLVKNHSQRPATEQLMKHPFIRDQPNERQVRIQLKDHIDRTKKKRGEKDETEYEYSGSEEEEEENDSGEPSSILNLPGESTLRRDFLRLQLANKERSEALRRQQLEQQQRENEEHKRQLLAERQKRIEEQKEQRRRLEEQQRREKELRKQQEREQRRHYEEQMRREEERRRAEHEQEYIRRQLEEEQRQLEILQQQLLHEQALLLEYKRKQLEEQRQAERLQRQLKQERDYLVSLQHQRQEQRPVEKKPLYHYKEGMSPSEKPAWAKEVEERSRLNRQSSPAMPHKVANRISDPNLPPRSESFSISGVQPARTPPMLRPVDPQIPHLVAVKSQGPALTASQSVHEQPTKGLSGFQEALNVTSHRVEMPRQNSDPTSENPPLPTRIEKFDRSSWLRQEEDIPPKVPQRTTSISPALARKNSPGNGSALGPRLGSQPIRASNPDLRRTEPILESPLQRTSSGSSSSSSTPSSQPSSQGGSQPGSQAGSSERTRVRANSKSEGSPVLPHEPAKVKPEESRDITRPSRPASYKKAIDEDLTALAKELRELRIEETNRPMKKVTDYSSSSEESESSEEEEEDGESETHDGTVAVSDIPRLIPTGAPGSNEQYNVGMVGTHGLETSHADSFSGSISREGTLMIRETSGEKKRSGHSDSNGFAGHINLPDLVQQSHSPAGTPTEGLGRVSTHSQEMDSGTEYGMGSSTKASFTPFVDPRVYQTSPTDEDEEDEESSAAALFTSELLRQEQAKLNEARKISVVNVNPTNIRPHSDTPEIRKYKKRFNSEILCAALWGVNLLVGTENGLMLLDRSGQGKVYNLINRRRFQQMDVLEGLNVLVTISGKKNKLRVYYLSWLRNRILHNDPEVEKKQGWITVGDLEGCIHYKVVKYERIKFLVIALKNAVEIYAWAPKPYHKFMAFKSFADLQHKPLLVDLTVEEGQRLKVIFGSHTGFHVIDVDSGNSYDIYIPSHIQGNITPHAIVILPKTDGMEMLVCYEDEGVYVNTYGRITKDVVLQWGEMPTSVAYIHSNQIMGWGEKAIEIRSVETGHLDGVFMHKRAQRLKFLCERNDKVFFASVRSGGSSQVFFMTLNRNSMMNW
UniProt Q969M1: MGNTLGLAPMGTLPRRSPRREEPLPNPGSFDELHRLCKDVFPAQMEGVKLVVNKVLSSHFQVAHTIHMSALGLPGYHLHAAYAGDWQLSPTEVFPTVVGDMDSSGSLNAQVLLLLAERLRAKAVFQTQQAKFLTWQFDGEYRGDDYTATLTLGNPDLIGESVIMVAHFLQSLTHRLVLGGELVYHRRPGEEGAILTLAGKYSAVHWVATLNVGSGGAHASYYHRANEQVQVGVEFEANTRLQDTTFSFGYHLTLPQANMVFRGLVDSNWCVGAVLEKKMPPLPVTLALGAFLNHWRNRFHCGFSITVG
UniProt P42167: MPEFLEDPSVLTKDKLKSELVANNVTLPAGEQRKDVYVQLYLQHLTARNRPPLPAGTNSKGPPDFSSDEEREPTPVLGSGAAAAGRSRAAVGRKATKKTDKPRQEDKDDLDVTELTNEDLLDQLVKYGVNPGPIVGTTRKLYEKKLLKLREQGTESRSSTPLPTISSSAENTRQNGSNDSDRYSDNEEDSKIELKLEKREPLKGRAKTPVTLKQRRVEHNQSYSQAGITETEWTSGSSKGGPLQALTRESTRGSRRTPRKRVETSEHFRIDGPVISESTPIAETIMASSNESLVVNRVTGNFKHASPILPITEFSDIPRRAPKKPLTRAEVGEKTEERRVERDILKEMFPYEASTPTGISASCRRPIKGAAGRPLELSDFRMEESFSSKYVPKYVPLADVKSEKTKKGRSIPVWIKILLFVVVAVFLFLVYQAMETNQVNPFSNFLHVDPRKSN
UniProt O14787: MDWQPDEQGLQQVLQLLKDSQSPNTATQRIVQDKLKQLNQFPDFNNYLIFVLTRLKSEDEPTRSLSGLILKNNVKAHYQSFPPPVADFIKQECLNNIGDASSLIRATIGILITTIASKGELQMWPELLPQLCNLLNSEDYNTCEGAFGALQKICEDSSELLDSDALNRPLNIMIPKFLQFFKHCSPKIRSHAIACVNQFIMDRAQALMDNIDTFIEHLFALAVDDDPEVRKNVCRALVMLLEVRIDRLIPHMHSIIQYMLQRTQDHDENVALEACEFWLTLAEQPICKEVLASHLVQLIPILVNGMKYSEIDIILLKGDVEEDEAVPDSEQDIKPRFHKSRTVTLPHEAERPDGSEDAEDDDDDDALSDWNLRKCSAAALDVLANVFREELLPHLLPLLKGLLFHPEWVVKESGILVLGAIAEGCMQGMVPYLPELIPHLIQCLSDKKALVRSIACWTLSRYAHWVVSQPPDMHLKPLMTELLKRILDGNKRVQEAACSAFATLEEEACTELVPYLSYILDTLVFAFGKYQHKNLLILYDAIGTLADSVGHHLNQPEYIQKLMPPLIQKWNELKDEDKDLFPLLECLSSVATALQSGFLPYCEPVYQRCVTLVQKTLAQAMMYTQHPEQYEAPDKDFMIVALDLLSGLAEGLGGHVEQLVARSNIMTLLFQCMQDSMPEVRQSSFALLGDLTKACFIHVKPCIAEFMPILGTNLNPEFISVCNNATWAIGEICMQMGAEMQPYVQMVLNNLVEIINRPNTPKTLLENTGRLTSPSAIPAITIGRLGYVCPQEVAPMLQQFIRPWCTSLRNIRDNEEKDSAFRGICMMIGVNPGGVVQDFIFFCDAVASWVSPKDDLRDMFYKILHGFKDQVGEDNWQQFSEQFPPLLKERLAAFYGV
UniProt Q9P0U1: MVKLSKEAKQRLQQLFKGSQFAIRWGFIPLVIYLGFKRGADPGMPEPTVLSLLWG
UniProt O14763, whole entry, looked up: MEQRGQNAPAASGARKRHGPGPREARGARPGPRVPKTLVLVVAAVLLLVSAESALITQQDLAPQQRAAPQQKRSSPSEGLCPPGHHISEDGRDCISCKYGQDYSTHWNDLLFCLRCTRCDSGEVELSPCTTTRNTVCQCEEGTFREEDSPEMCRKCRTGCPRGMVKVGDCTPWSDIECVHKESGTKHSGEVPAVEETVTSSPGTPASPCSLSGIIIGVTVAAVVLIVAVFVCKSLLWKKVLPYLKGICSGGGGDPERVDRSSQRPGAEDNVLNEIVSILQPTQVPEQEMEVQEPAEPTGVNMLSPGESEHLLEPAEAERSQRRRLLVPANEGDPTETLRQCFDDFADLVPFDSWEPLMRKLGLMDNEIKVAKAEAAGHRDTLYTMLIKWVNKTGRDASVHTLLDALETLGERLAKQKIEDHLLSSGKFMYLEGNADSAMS
UniProt O96008: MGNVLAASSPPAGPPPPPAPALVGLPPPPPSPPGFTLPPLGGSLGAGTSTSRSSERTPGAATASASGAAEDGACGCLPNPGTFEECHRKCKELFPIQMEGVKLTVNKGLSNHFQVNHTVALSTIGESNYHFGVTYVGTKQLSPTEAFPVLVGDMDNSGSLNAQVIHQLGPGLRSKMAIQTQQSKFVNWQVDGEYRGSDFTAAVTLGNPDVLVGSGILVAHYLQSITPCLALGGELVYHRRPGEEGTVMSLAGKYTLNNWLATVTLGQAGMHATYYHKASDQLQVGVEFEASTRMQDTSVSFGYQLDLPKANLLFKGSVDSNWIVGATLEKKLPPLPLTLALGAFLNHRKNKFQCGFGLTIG
UniProt P67936, whole entry, looked up: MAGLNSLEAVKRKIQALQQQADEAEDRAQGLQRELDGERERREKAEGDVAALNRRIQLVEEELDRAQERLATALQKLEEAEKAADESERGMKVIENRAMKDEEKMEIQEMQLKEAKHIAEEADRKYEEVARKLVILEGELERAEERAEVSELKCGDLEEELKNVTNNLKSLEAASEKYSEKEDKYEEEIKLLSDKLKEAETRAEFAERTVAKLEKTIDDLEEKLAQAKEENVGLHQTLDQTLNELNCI
UniProt Q9H4I3: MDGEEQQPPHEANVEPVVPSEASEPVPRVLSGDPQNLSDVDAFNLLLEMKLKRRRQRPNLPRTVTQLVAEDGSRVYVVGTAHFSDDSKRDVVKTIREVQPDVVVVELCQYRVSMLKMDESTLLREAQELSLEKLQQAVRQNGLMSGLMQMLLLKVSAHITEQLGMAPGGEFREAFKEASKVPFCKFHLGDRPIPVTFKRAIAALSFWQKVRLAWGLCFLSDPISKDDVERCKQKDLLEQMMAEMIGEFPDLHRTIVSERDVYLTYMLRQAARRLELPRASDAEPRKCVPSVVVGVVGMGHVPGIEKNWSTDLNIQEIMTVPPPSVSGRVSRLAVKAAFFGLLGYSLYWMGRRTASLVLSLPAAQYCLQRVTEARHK
UniProt Q9H496: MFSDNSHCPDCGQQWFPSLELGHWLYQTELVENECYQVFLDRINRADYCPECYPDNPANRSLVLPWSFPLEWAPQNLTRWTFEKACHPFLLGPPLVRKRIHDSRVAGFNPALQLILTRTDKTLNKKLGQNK
UniProt Q15388, whole entry, looked up: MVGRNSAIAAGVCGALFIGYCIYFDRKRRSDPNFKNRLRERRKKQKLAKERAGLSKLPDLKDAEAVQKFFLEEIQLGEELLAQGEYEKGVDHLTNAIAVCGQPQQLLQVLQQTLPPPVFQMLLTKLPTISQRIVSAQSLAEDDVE

Key:
Assay in all cases: log2 fold change, soluble protein after heating vs DMSO (PISA); higher = thermal stabilisation; K562 lysate, 10 uM; active = over 0.2 and 3.5 SD of the protein, either way, in both replicates (recomputed)
erlotinib = compound: C#Cc1cccc(Nc2ncnc3cc(OCCOC)c(OCCOC)cc23)c1 [erlotinib]
Outline: (§1)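 Thermal stability, expressed as log-two fold change relative to solvent controls, is given from duplicates. Crude K562 extract in PBS pH 7.4 with 1 mM MgCl2, at 1 mg/mL protein, was treated with 10 μM compound for 30 min and heated in aliquots for 3 min across 48°C-58°C. After pooling, adjustment to 0.5% NP-40 at 4°C and centrifugation at 21,000xg for 90 min, supernatant protein was measured by TMTpro 16plex LC-MS/MS with channel sums equalised.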

[1] = compound: C/C(=N\NC(=O)C1=CC(=CC=C1)S(=O)(=O)N2CCOCC2)/C3=C(C=CC(=C3)Cl)O
Outline: as §1

[2] = compound: C1=CC(=CC=C1C2=NC3=C(N2)C=C(C=C3)C(=O)N)OC4=CC=C(C=C4)Cl
Outline: as §1

[3] = compound: C1=CC2=C(C=CC(=C2)/C=C\3/C(=O)NC(=NCC4=CC=CS4)S3)N=C1
Outline: as §1

[4] = compound: C1=CC2=NC=CN=C2C=C1/C=C/3\C(=O)NC(=O)S3
Outline: as §1

[5] = compound: C1=CC=C(C=C1)C2=NC(=C(N2)C3=CC=NC=C3)C4=CC(=C(C=C4)Cl)O
Outline: as §1

[6] = compound: C1=CC=C2C(=C1)C3=NNC4=CC=CC(=C43)C2=O
Outline: as §1

[7] = compound: C1CCN(C1)C(=O)NC2=CC=CC(=C2)NC3=NC=C(C(=N3)NCCC4=CN=CN4)Br
Outline: as §1

[8] = compound: C1CN(CCC1(CC2=CC=C(C=C2)Cl)N)C3=NC=NC4=C3C=CN4
Outline: as §1

IRAK-1-4 Inhibitor I = compound: C1COCCN1CCN2C3=CC=CC=C3N=C2NC(=O)C4=CC(=CC=C4)[N+](=O)[O-] [IRAK-1-4 Inhibitor I]
Outline: as §1

ibrutinib = compound: C=CC(=O)N1CCC[C@@H](n2nc(-c3ccc(Oc4ccccc4)cc3)c3c(N)ncnc32)C1 [ibrutinib]
Outline: as §1

[9] = compound: CC(=O)c1cnc2ccc(-c3cc(Cl)c(O)c(Cl)c3)nc2c1N[C@H]1CC[C@H](CN(C)C)CC1
Outline: as §1

ralimetinib = compound: CC(C)(C)Cn1c(N)nc2ccc(-c3[nH]c(C(C)(C)C)nc3-c3ccc(F)cc3)nc21 [ralimetinib]
Outline: as §1

[10] = compound: CC(C)(O)CC(=O)NCCn1ccc2ncnc(Nc3ccc(Oc4cccc(C(F)(F)F)c4)c(Cl)c3)c21
Outline: as §1

[11] = compound: CC(C)C1=C2N=C(C=C(N2N=C1)NCC3=CC=CC=C3)NCCCCCCN
Outline: as §1

[12] = compound: CC1=C(C(CC(=O)N1)C2=CC=C(C=C2)C(F)(F)F)C(=O)NC3=C(C=C4C(=C3)C=NN4)F
Outline: as §1

[13] = compound: CC1=C(C2=C(C=C1)C(=O)C3=CC=CC=C3N2CCCN)C
Outline: as §1

[14] = compound: CC1=C(C=C(C=C1)NC(=O)C2=CC(=CC=C2)C(C)(C)C#N)NC3=CC4=C(C=C3)N=CN(C4=O)C
Outline: as §1

[15] = compound: CC1=C(C=C(C=C1)NC(=O)C2=CC(=CC=C2)N(C)C)NC(=O)C3=CC=C(C=C3)O
Outline: as §1

[16] = compound: CC1=CC=C(C=C1)SC2=C3C=C(SC3=CN=C2)C(=O)N
Outline: as §1

Measured: log2 fold change

TNKS1BP1 (UniProt Q9C0C2)
inactive: erlotinib 0.005 | [1] -0.057 | [2] 0.025 | [3] 0.004 | [4] 0 | [5] 0.006 | [6] -0.032 | [7] 0.016 | [8] 0.016 | IRAK-1-4 Inhibitor I 0.01 | ibrutinib 0 | [9] 0.009 | ralimetinib 0.012 | [10] -0.028 | [11] -0.025 | [12] -0.004 | [13] -0.022 | [14] -0.002 | [15] 0.012 | [16] -0.032

TPRKB (UniProt Q9Y3C4)
inactive: erlotinib -0.029 | [1] -0.008 | [2] 0.024 | [3] -0.091 | [4] -0.156 | [5] -0.015 | [6] 0.096 | [7] -0.018 | [8] 0.051 | IRAK-1-4 Inhibitor I 0.02 | ibrutinib -0.063 | [9] -0.044 | ralimetinib -0.069 | [10] 0.001 | [11] -0.021 | [12] -0.075 | [13] -0.001 | [14] -0.03 | [15] -0.034 | [16] -0.012

TNIK isoform 4 (UniProt Q9UKE5)
active: [9] 0.374
inactive: erlotinib -0.015 | [1] -0.037 | [2] -0.035 | [3] 0.119 | [4] 0.003 | [5] 0.125 | [6] 0.244 | [7] 0.113 | [8] -0.031 | IRAK-1-4 Inhibitor I -0.019 | ibrutinib 0.008 | ralimetinib -0.024 | [10] -0.005 | [11] 0.046 | [12] -0.013 | [13] -0.019 | [14] 0.186 | [15] -0.012 | [16] -0.068

TOMM40L (UniProt Q969M1)
inactive: erlotinib 0.013 | [1] 0.027 | [2] 0.047 | [3] -0.035 | [4] 0.068 | [5] -0.057 | [6] -0.058 | [7] -0.057 | [8] -0.008 | IRAK-1-4 Inhibitor I -0.033 | ibrutinib 0.099 | [9] -0.005 | ralimetinib 0.055 | [10] -0.09 | [11] -0.012 | [12] 0.019 | [13] -0.031 | [14] 0.069 | [15] -0.098 | [16] -0.004

TMPO (UniProt P42167)
inactive: erlotinib -0.016 | [1] 0.021 | [2] -0.021 | [3] -0.027 | [4] 0.014 | [5] -0.029 | [6] -0.073 | [7] -0.019 | [8] -0.032 | IRAK-1-4 Inhibitor I -0.002 | ibrutinib -0.003 | [9] 0.009 | ralimetinib 0.018 | [10] -0.001 | [11] -0.044 | [12] 0.006 | [13] 0.005 | [14] -0.043 | [15] -0.006 | [16] -0.064

TOLLIP (UniProt Q9H0E2)
inactive: erlotinib 0.039 | [1] -0.025 | [2] 0.016 | [3] 0.006 | [4] -0.015 | [5] -0.027 | [6] 0.003 | [7] -0.071 | [8] -0.026 | IRAK-1-4 Inhibitor I 0.007 | ibrutinib 0.009 | [9] 0.001 | ralimetinib 0.002 | [10] -0.004 | [11] -0.016 | [12] 0.047 | [13] -0.009 | [14] 0.235 | [15] 0.025 | [16] -0.005

Two consecutive records out of the list so far, quoted:
TMPO (UniProt P42167)
inactive: erlotinib -0.016 | [1] 0.021 | [2] -0.021 | [3] -0.027 | [4] 0.014 | [5] -0.029 | [6] -0.073 | [7] -0.019 | [8] -0.032 | IRAK-1-4 Inhibitor I -0.002 | ibrutinib -0.003 | [9] 0.009 | ralimetinib 0.018 | [10] -0.001 | [11] -0.044 | [12] 0.006 | [13] 0.005 | [14] -0.043 | [15] -0.006 | [16] -0.064

TOLLIP (UniProt Q9H0E2)
inactive: erlotinib 0.039 | [1] -0.025 | [2] 0.016 | [3] 0.006 | [4] -0.015 | [5] -0.027 | [6] 0.003 | [7] -0.071 | [8] -0.026 | IRAK-1-4 Inhibitor I 0.007 | ibrutinib 0.009 | [9] 0.001 | ralimetinib 0.002 | [10] -0.004 | [11] -0.016 | [12] 0.047 | [13] -0.009 | [14] 0.235 | [15] 0.025 | [16] -0.005

(list continues)

TNPO2 (UniProt O14787)
inactive: erlotinib 0.033 | [1] 0.014 | [2] -0.008 | [3] -0.001 | [4] -0.019 | [5] 0.008 | [6] -0.006 | [7] 0.014 | [8] 0.024 | IRAK-1-4 Inhibitor I 0.05 | ibrutinib -0.011 | [9] 0.011 | ralimetinib 0.003 | [10] -0.043 | [11] -0.053 | [12] 0.002 | [13] -0.034 | [14] -0.014 | [15] 0.026 | [16] 0

TOMM7 (UniProt Q9P0U1)
inactive: erlotinib 0.031 | [1] -0.021 | [2] -0.039 | [3] -0.042 | [4] -0.015 | [5] 0.083 | [6] -0.055 | [7] -0.029 | [8] 0.005 | IRAK-1-4 Inhibitor I -0.003 | ibrutinib 0.065 | [9] -0.049 | ralimetinib 0.037 | [10] -0.012 | [11] 0.008 | [12] 0.011 | [13] -0.045 | [14] 0.131 | [15] -0.065 | [16] -0.007

TNFRSF10B (UniProt O14763)
inactive: erlotinib -0.08 | [1] -0.06 | [2] -0.051 | [3] 0.028 | [4] -0.036 | [5] 0.079 | [6] -0.054 | [7] -0.012 | [8] -0.002 | IRAK-1-4 Inhibitor I -0.04 | ibrutinib 0.052 | [9] 0.015 | ralimetinib 0.009 | [10] 0.009 | [11] -0.062 | [12] 0.041 | [13] 0.018 | [14] 0.017 | [15] -0.049 | [16] 0.019

TOMM40 (UniProt O96008)
inactive: erlotinib 0.007 | [1] -0.004 | [2] 0.003 | [3] 0.012 | [4] 0.003 | [5] 0.012 | [6] -0.006 | [7] -0.008 | [8] -0.001 | IRAK-1-4 Inhibitor I 0.026 | ibrutinib 0.015 | [9] 0.004 | ralimetinib -0.008 | [10] -0.028 | [11] -0.003 | [12] -0.034 | [13] -0.015 | [14] 0.025 | [15] -0.016 | [16] -0.012

TPM4 isoform 2 (UniProt P67936)
inactive: erlotinib -0.06 | [1] 0.011 | [2] -0.048 | [3] 0.067 | [4] 0.002 | [5] 0.024 | [6] -0.016 | [7] 0.016 | [8] -0.015 | IRAK-1-4 Inhibitor I -0.022 | ibrutinib -0.062 | [9] 0.016 | ralimetinib -0.005 | [10] 0.032 | [11] -0.034 | [12] -0.027 | [13] -0.025 | [14] -0.06 | [15] -0.004 | [16] 0

TRABD (UniProt Q9H4I3)
inactive: erlotinib -0.04 | [1] -0.121 | [2] 0.021 | [3] -0.022 | [4] -0.016 | [5] -0.056 | [6] -0.083 | [7] -0.007 | [8] -0.037 | IRAK-1-4 Inhibitor I 0.044 | ibrutinib -0.02 | [9] 0.008 | ralimetinib 0.006 | [10] 0.019 | [11] 0.017 | [12] -0.014 | [13] -0.006 | [14] 0.046 | [15] -0.028 | [16] -0.06

TOR1AIP2 (UniProt Q9H496)
inactive: erlotinib 0.084 | [1] 0.035 | [2] 0.069 | [3] -0.182 | [4] -0.015 | [5] -0.014 | [6] -0.426 | [7] -0.127 | [8] 0.109 | IRAK-1-4 Inhibitor I -0.036 | ibrutinib -0.14 | [9] 0.106 | ralimetinib 0.017 | [10] 0.073 | [11] -0.032 | [12] -0.103 | [13] -0.083 | [14] 0.095 | [15] 0.001 | [16] 0.096

TOP3B (UniProt O95985)
inactive: erlotinib -0.01 | [1] 0.006 | [2] -0.025 | [3] -0.007 | [4] -0.018 | [5] -0.019 | [6] 0.007 | [7] -0.015 | [8] 0.023 | IRAK-1-4 Inhibitor I -0.014 | ibrutinib 0.007 | [9] -0.009 | ralimetinib 0.029 | [10] 0.024 | [11] -0.01 | [12] 0.007 | [13] -0.022 | [14] 0.031 | [15] 0.021 | [16] 0.005

TMEM189-UBE2V1 (UniProt I3L0A0)
inactive: erlotinib -0.041 | [1] 0.25 | [2] 0.019 | [3] -0.019 | [4] 0.003 | [5] 0.024 | [6] 0.061 | [7] -0.015 | [8] -0.013 | IRAK-1-4 Inhibitor I -0.004 | ibrutinib 0.041 | [9] 0.004 | ralimetinib 0.042 | [10] -0.04 | [11] 0.012 | [12] -0.007 | [13] -0.005 | [14] 0.032 | [15] -0.053 | [16] 0.003

TOMM20 (UniProt Q15388)
inactive: erlotinib -0.009 | [1] 0.029 | [2] -0.112 | [3] 0.003 | [4] -0.038 | [5] -0.011 | [6] 0.049 | [7] -0.007 | [8] -0.006 | IRAK-1-4 Inhibitor I 0 | ibrutinib -0.039 | [9] -0.013 | ralimetinib -0.017 | [10] -0.058 | [11] 0.024 | [12] 0.079 | [13] -0.018 | [14] 0.103 | [15] 0.02 | [16] 0.009
